Taken from: PubChem BioAssay AID652243 (Drosophila RNAi Screening Center, 2013)
The screen tested about 24,000 reagents; shown is a random part of those with a known target gene and a result. Of all reagents, 246 (1%) were called active. 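Plates not normalised; calls are printed but the firefly/Renilla ratio behind them is not deposited; fold cut for lowering reported inconsistently.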 The raw values are shown without normalisation. The numbers tell different reagents against one gene apart. Reagent sequences are not shown. Not given: the amount of reagent.

Aim: 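Fly genes required for human androgen receptor driven transcription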 (primary screen)
Cell system: Drosophila S2R+ cells
Reagent: long dsRNA against Drosophila genes
Time to read-out: 72 h (48 h, then 24 h hormone)
Treatment: synthetic androgen R1881 at 10 nM for 24 h
Measurement: 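Per-well raw luminescence of the androgen-driven firefly reporter and of the Renilla control, two replicates each, without normalisation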
Direction: firefly reporter light: higher = more light from androgen-responsive reporter; Renilla control light: higher = more constitutive control signal (cell number, transfection)
Hit rule: 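Across duplicate plates, a knock-down whose log firefly/Renilla ratio shifted a set fold down or up from the GFP/LacZ control mean was a hit; the downward cut appears as both 1.5 and 3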
Meaning of the calls: active = hit: reporter lowered or raised; inactive = no hit

| gene | dsRNA no. | firefly reporter light, replicate 1 | firefly reporter light, replicate 2 | Renilla control light, replicate 1 | Renilla control light, replicate 2 | outcome |
| --- | --- | --- | --- | --- | --- | --- |
| CG13603 | 1 | 77490 | 1.18e5 | 5.89e5 | 5.71e5 | inactive |
| Damm | 1 | 3.52e5 | 2.46e5 | 2.26e6 | 1.78e6 | inactive |
| sens | 1 | 14244 | 18002 | 75249 | 89167 | inactive |
| sens | 2 | 6.16e5 | 6.32e5 | 1.36e6 | 1.21e6 | inactive |
| CG2816 | 1 | 1.18e5 | 1.18e5 | 7.48e5 | 1.04e6 | inactive |
| CG2816 | 2 | 6.07e5 | 7.48e5 | 7.40e5 | 6.59e5 | inactive |
| CG13311 | 1 | 1.12e5 | 97563 | 1.88e6 | 1.02e6 | inactive |
| CG14451 | 1 | 2.81e5 | 2.07e5 | 2.60e6 | 2.74e6 | inactive |
| CG14451 | 2 | 3.13e5 | 3.36e5 | 8.08e5 | 7.74e5 | inactive |
| xit | 1 | 83089 | 59674 | 7.12e5 | 5.32e5 | inactive |
| l(2)10685 | 1 | 7.26e5 | 8.49e5 | 2.22e6 | 1.95e6 | inactive |
| l(2)10685 | 2 | 4.22e5 | 3.22e5 | 5.08e5 | 8.25e5 | inactive |
| CG31668 | 1 | 7.34e5 | 5.02e5 | 1.79e6 | 1.71e6 | inactive |
| phr | 1 | 5.49e5 | 7.72e5 | 1.83e6 | 1.43e6 | inactive |
| mi | 1 | 3.89e5 | 1.63e5 | 1.35e6 | 5.70e5 | inactive |
| mi | 2 | 2.00e5 | 3.25e5 | 6.30e5 | 6.30e5 | inactive |
| Nrx-1 | 1 | 69197 | 90206 | 81022 | 86630 | inactive |
| Rgl | 1 | 2.74e5 | 2.22e5 | 2.74e6 | 1.87e6 | inactive |
| Arv1 | 1 | 1.97e5 | 2.32e5 | 4.96e5 | 5.52e5 | inactive |
| CG5339 | 1 | 4.36e5 | 5.86e5 | 7.42e5 | 9.79e5 | inactive |
| Cyp6a20 | 1 | 1.18e6 | 1.05e6 | 2.08e6 | 1.94e6 | inactive |
| moon | 1 | 3.14e5 | 3.32e5 | 2.73e6 | 2.71e6 | inactive |
| babo | 1 | 2.24e5 | 1.50e5 | 1.54e6 | 1.30e6 | inactive |
| babo | 2 | – | – | – | – | inactive |
| babo | 3 | – | – | – | – | inactive |
| CAH13 | 1 | 2.94e5 | 2.27e5 | 1.42e6 | 1.48e6 | inactive |
| CAH13 | 2 | 7.99e5 | 7.69e5 | 1.29e6 | 7.70e5 | inactive |
| His2Av | 1 | 1.31e5 | 1.31e5 | 7.79e5 | 9.52e5 | inactive |
| CG11980 | 1 | 20866 | 51918 | 1.92e5 | 3.10e5 | inactive |
| CG14324 | 1 | 1.38e5 | 88579 | 2.43e6 | 1.39e6 | inactive |
| CG14324 | 2 | 8.23e5 | 6.46e5 | 7.30e5 | 7.82e5 | inactive |

A run of entries taken from the entries so far:
| gene | dsRNA no. | firefly reporter light, replicate 1 | firefly reporter light, replicate 2 | Renilla control light, replicate 1 | Renilla control light, replicate 2 | outcome |
| --- | --- | --- | --- | --- | --- | --- |
| CG13311 | 1 | 1.12e5 | 97563 | 1.88e6 | 1.02e6 | inactive |
| CG14451 | 1 | 2.81e5 | 2.07e5 | 2.60e6 | 2.74e6 | inactive |
| CG14451 | 2 | 3.13e5 | 3.36e5 | 8.08e5 | 7.74e5 | inactive |
| xit | 1 | 83089 | 59674 | 7.12e5 | 5.32e5 | inactive |
| l(2)10685 | 1 | 7.26e5 | 8.49e5 | 2.22e6 | 1.95e6 | inactive |
| l(2)10685 | 2 | 4.22e5 | 3.22e5 | 5.08e5 | 8.25e5 | inactive |
| CG31668 | 1 | 7.34e5 | 5.02e5 | 1.79e6 | 1.71e6 | inactive |
| phr | 1 | 5.49e5 | 7.72e5 | 1.83e6 | 1.43e6 | inactive |
| mi | 1 | 3.89e5 | 1.63e5 | 1.35e6 | 5.70e5 | inactive |

More results follow.
| gene | dsRNA no. | firefly reporter light, replicate 1 | firefly reporter light, replicate 2 | Renilla control light, replicate 1 | Renilla control light, replicate 2 | outcome |
| --- | --- | --- | --- | --- | --- | --- |
| Fs(2)Ket | 1 | 1.41e5 | 2.27e5 | 6.65e5 | 7.97e5 | inactive |
| Fs(2)Ket | 2 | 1.54e5 | 2.21e5 | 2.90e5 | 3.22e5 | inactive |
| mud | 1 | 4.20e5 | 2.61e5 | 3.65e5 | 1.74e5 | inactive |
| Rpn11 | 1 | 66809 | 50014 | 4.99e5 | 5.14e5 | inactive |
| gfzf | 1 | 71089 | 67339 | 2.88e5 | 4.56e5 | inactive |
| gfzf | 2 | 1.07e6 | 9.89e5 | 2.48e6 | 1.43e6 | inactive |
| LeuRS | 1 | 1.25e5 | 96708 | 1.08e6 | 8.09e5 | inactive |
| Exo84 | 1 | 1.69e5 | 1.41e5 | 1.65e6 | 1.73e6 | inactive |
| CG13690 | 1 | 93306 | 55615 | 5.51e5 | 4.54e5 | inactive |
| NimC3 | 1 | 2.05e5 | 2.45e5 | 2.20e6 | 2.80e6 | inactive |
| NimC3 | 2 | 7.45e5 | 8.54e5 | 1.48e6 | 1.17e6 | inactive |
| NimC3 | 3 | 7.41e5 | 5.95e5 | 1.49e6 | 1.12e6 | inactive |
| Art1 | 1 | 78663 | 82699 | 3.16e5 | 4.11e5 | inactive |
| CG13970 | 1 | 77519 | 59082 | 1.10e6 | 9.51e5 | inactive |
| CG13970 | 2 | 3.16e5 | 3.70e5 | 7.98e5 | 7.98e5 | inactive |
| nst | 1 | 8.78e5 | 8.41e5 | 1.18e6 | 1.57e6 | inactive |
| Npc2e | 1 | 1.02e5 | 1.27e5 | 1.92e6 | 1.91e6 | inactive |
| Npc2e | 2 | 7.27e5 | 9.45e5 | 2.57e5 | 2.46e5 | inactive |
| CG31496 | 1 | 3.95e5 | 4.18e5 | 2.49e6 | 3.37e6 | inactive |
| CG31496 | 2 | 5.68e5 | 3.86e5 | 1.79e6 | 1.23e6 | inactive |
| MRG15 | 1 | 32355 | 65785 | 3.81e5 | 4.00e5 | inactive |
| CG12506 | 1 | 1.46e5 | 1.41e5 | 6.82e5 | 7.68e5 | inactive |
| CG34462 | 1 | 1.31e5 | 1.73e5 | 1.91e6 | 1.39e6 | inactive |
| CG34462 | 2 | 9.15e5 | 1.11e6 | 8.63e5 | 1.05e6 | inactive |
| CG6083 | 1 | 1.72e5 | 1.54e5 | 1.91e6 | 1.69e6 | inactive |
| CG6083 | 2 | 6.90e5 | 8.81e5 | 6.37e5 | 6.31e5 | inactive |
| Cad74A | 1 | 1.79e5 | 2.50e5 | 2.23e6 | 2.55e6 | inactive |
